PubChem BioAssay AID1259424 | University of Nebraska Medical Center – 2018
Screen: 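Seek colon cancer survival genes behaving like KSR1, using a six-gene signature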 (primary screen). System: human HCT116 colon cancer cells. Knock-down reagent: siRNA pool against human genes, 50 nM. Detection: 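Six signature mRNAs by branched-DNA multiplex assay, scaled to two housekeeping genes and non-targeting median, log2; matched to mean KSR1 knockdown profile by Pearson correlation and euclidean distance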. Scale: mean correlation with KSR1 profile: higher = expression change more like KSR1 knockdown.
Here is a random part of about 14,000 reagents tested. 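Higher correlation or smaller distance means closer resemblance to KSR1 loss; control wells, including KSR1 knockdowns, recur on many plates.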 Not all columns of the deposit are shown. Not stated in the record: the time to read-out.

The first 3 records, ahead of the listing:
Gene | mean correlation with KSR1 profile
JUN (Jun proto-oncogene, AP-1 transcription factor subunit) | 0.233
LAMTOR2 (late endosomal/lysosomal adaptor, MAPK and MTOR activator 2) | 0.497
HSP90AA1 (heat shock protein 90 alpha family class A member 1) | 0.869

The list itself, from the start:
Gene | mean correlation with KSR1 profile
JUN (Jun proto-oncogene, AP-1 transcription factor subunit) | 0.233
LAMTOR2 (late endosomal/lysosomal adaptor, MAPK and MTOR activator 2) | 0.497
HSP90AA1 (heat shock protein 90 alpha family class A member 1) | 0.869
RAP1GDS1 (Rap1 GTPase-GDP dissociation stimulator 1) | 0.297
SLC2A4 | 0.269
RCN1 (reticulocalbin 1) | 0.559
ANKRD13C (ankyrin repeat domain 13C) | 0.638
VEGFD (vascular endothelial growth factor D) | 0.378
XK | 0.224
CMPK1 (cytidine/uridine monophosphate kinase 1) | 0.0899
BZW2 (basic leucine zipper and W2 domains 2) | 0.0837
SPTA1 (spectrin alpha, erythrocytic 1) | -0.092
SMARCC1 (SWI/SNF related BAF chromatin remodeling complex subunit C1) | -0.291
CD5 (CD5 molecule) | 0.719
CPA6 (carboxypeptidase A6) | -0.0596
RBSN (rabenosyn, RAB effector) | -0.461
TMOD4 (tropomodulin 4) | 0.326
TRIM22 (tripartite motif containing 22) | -0.563
ACTR2 (actin related protein 2) | -0.0608
CERK (ceramide kinase) | 0.533
LPIN1 (lipin 1) | 0.61
JARID2 (jumonji and AT-rich interaction domain containing 2) | 0.237
ADAMTS13 (ADAM metallopeptidase with thrombospondin type 1 motif 13) | -0.3
ZDHHC14 (zDHHC palmitoyltransferase 14) | 0.566
STARD8 (StAR related lipid transfer domain containing 8) | -0.686
GRPR (gastrin releasing peptide receptor) | 0.663
POLR2D (RNA polymerase II subunit D) | -0.334
CEMIP2 (cell migration inducing hyaluronidase 2) | -0.463
ACOT11 (acyl-CoA thioesterase 11) | -0.836
GTPBP3 (GTP binding protein 3, mitochondrial) | 0.615
ATG10 (autophagy related 10) | 0.0446
CLRN1 (clarin 1) | -0.0497
CPA5 (carboxypeptidase A5) | -0.551
CACNB3 (calcium voltage-gated channel auxiliary subunit beta 3) | -0.0115
SFN (stratifin) | 0.108
TUBD1 (tubulin delta 1) | 0.0947
IRX3 (iroquois homeobox 3) | 0.676
TPRKB (TP53RK binding protein) | -0.415
LONP1 (lon peptidase 1, mitochondrial) | -0.0468
TMEM144 (transmembrane protein 144) | -0.635
LSM5 | -0.391
TOMM40 (translocase of outer mitochondrial membrane 40) | -0.737
ATF7 (activating transcription factor 7) | 0.26
COL4A1 (collagen type IV alpha 1 chain) | -0.498
CD58 (CD58 molecule) | 0.701
CCL3 (C-C motif chemokine ligand 3) | 0.137
IRGC (immunity related GTPase cinema) | -0.799
TDP2 (tyrosyl-DNA phosphodiesterase 2) | 0.693
NINL (ninein like) | 0.163
IL21R (interleukin 21 receptor) | 0.326
